Measured values reported in the supplement of paper PMC10849652.
Some of the results follow. Residues, ends and D or L forms follow the SMILES beside them. *: point of attachment. Cbz = O=C(OCc1ccccc1)*

Sequences of proteins named here, by UniProt entry; tags and fusion partners are left off. A change or cut given only in a name is not applied to a line headed by its entry.
UniProt Q5VWK5: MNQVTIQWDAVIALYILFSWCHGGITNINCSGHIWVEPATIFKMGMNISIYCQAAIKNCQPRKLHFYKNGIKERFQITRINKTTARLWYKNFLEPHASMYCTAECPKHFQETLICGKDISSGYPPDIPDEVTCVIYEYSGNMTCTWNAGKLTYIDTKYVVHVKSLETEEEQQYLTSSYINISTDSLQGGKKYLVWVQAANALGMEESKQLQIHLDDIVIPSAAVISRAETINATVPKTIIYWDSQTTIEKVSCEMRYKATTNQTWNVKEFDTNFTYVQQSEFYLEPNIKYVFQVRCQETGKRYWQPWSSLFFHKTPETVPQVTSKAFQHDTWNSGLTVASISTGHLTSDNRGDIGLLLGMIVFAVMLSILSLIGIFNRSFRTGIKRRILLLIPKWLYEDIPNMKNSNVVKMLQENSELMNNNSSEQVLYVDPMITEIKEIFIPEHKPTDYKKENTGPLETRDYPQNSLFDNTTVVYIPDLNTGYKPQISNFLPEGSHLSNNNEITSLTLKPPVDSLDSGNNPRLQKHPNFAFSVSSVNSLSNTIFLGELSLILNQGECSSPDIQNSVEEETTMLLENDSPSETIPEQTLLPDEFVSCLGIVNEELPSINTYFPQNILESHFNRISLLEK
UniProt Q9NRY2: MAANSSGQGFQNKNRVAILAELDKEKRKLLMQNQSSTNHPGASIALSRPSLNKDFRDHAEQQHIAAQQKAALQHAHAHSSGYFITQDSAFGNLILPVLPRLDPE
UniProt Q9NQS7, whole entry, looked up: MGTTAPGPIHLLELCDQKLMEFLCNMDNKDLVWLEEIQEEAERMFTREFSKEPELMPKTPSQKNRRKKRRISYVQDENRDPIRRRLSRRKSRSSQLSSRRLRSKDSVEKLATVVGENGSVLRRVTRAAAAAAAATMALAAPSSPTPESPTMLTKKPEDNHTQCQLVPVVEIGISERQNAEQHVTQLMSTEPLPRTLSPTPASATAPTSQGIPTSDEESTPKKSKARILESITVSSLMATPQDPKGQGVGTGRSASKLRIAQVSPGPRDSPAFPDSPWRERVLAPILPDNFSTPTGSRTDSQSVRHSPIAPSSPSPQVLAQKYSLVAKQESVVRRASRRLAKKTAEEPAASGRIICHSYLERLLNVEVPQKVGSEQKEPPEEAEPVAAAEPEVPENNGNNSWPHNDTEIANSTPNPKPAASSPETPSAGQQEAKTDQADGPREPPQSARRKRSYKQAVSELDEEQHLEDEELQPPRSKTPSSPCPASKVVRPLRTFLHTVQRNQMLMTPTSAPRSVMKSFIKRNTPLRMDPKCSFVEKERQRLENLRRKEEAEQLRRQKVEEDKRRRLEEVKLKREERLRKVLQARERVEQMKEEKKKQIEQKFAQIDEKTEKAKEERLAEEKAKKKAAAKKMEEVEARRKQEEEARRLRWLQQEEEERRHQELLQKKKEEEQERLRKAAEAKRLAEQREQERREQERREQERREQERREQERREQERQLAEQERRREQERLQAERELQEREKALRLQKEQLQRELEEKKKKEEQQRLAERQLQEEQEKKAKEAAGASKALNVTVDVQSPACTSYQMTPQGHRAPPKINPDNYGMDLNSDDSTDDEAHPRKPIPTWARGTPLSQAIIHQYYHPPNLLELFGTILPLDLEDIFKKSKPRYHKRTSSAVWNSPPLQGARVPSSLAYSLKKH
UniProt Q86VI3: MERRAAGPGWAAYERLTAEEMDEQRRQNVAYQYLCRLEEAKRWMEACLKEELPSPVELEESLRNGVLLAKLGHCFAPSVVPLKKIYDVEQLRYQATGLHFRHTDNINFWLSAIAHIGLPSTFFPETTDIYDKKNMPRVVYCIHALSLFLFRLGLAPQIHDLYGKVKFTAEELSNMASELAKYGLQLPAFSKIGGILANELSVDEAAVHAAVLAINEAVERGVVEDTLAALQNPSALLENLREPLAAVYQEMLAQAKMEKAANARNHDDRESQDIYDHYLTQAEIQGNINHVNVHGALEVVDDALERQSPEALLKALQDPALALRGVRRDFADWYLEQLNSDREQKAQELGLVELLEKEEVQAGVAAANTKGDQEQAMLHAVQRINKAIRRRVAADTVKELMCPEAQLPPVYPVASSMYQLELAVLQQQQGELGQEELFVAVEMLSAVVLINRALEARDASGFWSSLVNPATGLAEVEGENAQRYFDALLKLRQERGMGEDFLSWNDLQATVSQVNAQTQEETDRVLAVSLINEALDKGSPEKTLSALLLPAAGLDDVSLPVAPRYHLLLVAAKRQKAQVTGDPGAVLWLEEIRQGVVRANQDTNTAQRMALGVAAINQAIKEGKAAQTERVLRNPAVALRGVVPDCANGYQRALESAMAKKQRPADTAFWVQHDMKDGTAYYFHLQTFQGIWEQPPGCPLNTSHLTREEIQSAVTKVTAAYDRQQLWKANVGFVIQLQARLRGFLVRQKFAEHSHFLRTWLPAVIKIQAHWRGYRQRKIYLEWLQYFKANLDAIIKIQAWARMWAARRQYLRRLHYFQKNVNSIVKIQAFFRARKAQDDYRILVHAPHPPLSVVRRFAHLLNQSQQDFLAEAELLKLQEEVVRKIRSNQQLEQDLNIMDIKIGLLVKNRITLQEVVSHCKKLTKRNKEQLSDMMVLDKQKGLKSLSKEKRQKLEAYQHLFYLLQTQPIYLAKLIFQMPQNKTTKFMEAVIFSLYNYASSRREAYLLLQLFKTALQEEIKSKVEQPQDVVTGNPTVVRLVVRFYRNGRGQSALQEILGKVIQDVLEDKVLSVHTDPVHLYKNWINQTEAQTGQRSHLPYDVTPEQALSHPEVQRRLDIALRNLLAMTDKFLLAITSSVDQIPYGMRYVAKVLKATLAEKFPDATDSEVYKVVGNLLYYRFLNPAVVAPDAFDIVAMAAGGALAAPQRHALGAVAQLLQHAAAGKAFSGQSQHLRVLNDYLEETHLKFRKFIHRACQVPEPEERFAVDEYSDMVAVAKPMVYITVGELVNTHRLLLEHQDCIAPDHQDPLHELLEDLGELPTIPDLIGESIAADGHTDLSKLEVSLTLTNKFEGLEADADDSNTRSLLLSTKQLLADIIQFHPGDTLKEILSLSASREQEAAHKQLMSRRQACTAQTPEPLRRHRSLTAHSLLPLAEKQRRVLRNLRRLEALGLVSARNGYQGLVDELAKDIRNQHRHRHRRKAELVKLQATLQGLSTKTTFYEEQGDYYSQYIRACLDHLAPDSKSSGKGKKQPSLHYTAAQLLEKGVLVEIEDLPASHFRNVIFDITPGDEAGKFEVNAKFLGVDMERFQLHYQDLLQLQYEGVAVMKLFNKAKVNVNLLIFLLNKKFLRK
UniProt P01877, whole entry, looked up: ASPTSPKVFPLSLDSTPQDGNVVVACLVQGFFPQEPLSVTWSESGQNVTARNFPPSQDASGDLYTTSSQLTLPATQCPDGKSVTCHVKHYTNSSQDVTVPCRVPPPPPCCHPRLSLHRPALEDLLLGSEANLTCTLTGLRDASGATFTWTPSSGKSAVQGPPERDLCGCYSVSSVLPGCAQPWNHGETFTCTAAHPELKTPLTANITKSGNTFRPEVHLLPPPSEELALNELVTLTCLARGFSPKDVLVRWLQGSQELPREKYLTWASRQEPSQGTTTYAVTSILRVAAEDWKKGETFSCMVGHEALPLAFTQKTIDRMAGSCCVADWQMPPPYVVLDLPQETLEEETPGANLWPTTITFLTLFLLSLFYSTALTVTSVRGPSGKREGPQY
UniProt Q96G21: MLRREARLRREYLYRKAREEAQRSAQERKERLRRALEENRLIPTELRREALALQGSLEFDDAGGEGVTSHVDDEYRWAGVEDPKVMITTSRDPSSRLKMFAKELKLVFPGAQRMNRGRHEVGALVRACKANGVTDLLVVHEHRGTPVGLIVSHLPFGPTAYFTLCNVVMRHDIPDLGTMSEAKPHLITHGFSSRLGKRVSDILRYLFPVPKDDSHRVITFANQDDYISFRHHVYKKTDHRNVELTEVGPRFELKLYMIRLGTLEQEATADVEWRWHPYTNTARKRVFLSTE
UniProt P17181: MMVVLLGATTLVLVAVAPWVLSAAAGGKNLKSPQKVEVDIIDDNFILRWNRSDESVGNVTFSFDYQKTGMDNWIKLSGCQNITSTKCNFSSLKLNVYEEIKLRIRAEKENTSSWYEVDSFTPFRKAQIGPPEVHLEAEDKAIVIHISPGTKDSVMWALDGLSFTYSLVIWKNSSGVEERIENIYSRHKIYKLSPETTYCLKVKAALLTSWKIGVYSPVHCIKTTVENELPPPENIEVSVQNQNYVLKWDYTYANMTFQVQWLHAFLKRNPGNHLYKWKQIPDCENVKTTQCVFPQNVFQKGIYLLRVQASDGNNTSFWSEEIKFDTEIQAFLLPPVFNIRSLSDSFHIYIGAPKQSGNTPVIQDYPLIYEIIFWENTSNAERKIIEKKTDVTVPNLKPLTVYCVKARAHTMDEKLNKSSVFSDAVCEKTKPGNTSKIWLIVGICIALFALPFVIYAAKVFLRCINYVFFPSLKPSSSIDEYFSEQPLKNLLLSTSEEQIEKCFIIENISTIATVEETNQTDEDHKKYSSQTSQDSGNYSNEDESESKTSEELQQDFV
UniProt Q8IY31, whole entry, looked up: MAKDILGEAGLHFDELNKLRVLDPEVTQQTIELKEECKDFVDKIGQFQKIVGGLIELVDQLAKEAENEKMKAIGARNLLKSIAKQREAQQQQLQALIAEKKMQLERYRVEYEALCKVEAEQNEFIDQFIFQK
UniProt Q8NFU5: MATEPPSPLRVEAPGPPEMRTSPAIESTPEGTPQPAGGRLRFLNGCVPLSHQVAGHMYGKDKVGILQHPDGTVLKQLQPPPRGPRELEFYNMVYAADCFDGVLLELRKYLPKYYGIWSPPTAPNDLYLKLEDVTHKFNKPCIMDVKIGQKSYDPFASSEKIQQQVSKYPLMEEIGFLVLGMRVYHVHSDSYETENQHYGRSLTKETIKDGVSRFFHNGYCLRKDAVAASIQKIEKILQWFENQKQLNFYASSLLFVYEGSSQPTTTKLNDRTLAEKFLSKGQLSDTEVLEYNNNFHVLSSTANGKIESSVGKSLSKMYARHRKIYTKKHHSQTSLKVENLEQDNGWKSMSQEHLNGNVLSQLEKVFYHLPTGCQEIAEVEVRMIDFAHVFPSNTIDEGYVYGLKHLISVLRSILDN
UniProt Q8N6C5: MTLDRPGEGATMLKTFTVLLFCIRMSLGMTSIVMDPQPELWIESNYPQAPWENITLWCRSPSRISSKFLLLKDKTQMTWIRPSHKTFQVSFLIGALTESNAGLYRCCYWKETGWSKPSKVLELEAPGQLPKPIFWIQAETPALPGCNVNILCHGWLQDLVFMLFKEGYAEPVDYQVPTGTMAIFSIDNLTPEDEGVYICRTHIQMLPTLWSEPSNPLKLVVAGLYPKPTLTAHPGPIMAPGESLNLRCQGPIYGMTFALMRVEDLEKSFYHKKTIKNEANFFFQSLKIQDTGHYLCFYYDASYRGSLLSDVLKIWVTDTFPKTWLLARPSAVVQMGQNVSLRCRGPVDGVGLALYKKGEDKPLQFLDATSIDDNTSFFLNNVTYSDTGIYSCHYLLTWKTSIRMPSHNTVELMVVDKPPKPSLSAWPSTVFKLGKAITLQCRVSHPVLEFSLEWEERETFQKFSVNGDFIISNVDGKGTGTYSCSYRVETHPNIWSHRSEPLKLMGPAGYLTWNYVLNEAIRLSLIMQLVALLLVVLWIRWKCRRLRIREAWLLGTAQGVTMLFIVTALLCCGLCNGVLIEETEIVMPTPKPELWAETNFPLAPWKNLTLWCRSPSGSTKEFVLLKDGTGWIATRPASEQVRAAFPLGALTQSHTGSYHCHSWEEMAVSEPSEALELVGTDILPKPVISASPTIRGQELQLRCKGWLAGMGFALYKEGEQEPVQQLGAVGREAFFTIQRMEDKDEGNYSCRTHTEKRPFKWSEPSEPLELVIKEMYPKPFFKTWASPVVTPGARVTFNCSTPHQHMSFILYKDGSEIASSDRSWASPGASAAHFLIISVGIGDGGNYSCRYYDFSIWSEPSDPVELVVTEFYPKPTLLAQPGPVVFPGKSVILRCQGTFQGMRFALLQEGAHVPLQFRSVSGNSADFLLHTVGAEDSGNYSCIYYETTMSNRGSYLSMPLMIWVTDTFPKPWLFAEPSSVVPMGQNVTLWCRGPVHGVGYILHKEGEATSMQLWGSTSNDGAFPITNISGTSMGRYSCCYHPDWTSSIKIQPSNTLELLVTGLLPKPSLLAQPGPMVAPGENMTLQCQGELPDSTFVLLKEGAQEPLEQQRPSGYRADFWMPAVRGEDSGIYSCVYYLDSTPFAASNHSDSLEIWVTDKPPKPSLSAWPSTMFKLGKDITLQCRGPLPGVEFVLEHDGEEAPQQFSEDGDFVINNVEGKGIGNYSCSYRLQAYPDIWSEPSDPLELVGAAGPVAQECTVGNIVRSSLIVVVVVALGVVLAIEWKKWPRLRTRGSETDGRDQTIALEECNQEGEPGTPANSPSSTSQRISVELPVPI
UniProt P01344, whole entry, looked up: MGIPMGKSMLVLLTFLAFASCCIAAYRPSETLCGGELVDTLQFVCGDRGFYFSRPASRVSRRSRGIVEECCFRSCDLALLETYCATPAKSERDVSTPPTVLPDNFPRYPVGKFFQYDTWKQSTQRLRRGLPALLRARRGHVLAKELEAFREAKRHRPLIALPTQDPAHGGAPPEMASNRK

Columns and labels:
Experiment in all cases: log2 fold change, soluble protein after heating vs DMSO (PISA); higher = thermal stabilisation; K562 cells, 10 uM, 30 min; active = over 0.2 and 3.5 SD of the protein, either way, in both replicates (recomputed)
[1] = compound: C/C(=N\NC(=O)C1=CC(=CC=C1)S(=O)(=O)N2CCOCC2)/C3=C(C=CC(=C3)Cl)O
Outline: (§1)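 Values are thermal stability changes relative to control samples and are taken from duplicates. They are stated as log2 fold changes. Before quantification by TMTpro 16plex LC-MS/MS with equalised channel sums, K562 cells at 2×10^6 cells/mL were treated with 10 μM compound for 30 min, heated in aliquots for 3 min across 48°C-58°C, pooled, extracted in PBS with 0.5% NP-40 at 4°C, and centrifuged at 21,000xg for 90 min to give the soluble supernatant.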

[2] = compound: C1=CC2=C(C=CC(=C2)/C=C\3/C(=O)NC(=NCC4=CC=CS4)S3)N=C1
Outline: as §1

[3] = compound: C1=CC2=NC=CN=C2C=C1/C=C/3\C(=O)NC(=O)S3
Outline: as §1

[4] = compound: C1=CC=C2C(=C1)C3=NNC4=CC=CC(=C43)C2=O
Outline: as §1

[5] = compound: C1CCN(C1)C(=O)NC2=CC=CC(=C2)NC3=NC=C(C(=N3)NCCC4=CN=CN4)Br
Outline: as §1

[6] = compound: C1CN(CCC1(CC2=CC=C(C=C2)Cl)N)C3=NC=NC4=C3C=CN4
Outline: as §1

ibrutinib = compound: C=CC(=O)N1CCC[C@@H](n2nc(-c3ccc(Oc4ccccc4)cc3)c3c(N)ncnc32)C1 [ibrutinib]
Outline: as §1

[7] = compound: CC(=O)c1cnc2ccc(-c3cc(Cl)c(O)c(Cl)c3)nc2c1N[C@H]1CC[C@H](CN(C)C)CC1
Outline: as §1

[8] = compound: CC1=C(C2=C(C=C1)C(=O)C3=CC=CC=C3N2CCCN)C
Outline: as §1

erlotinib = compound: C#Cc1cccc(Nc2ncnc3cc(OCCOC)c(OCCOC)cc23)c1 [erlotinib]
Outline: as §1

[9] = compound: C1=CC(=CC=C1C2=NC3=C(N2)C=C(C=C3)C(=O)N)OC4=CC=C(C=C4)Cl
Outline: as §1

[10] = compound: C1=CC=C(C=C1)C2=NC(=C(N2)C3=CC=NC=C3)C4=CC(=C(C=C4)Cl)O
Outline: as §1

ralimetinib = compound: CC(C)(C)Cn1c(N)nc2ccc(-c3[nH]c(C(C)(C)C)nc3-c3ccc(F)cc3)nc21 [ralimetinib]
Outline: as §1

[11] = compound: CC(C)C1=C2N=C(C=C(N2N=C1)NCC3=CC=CC=C3)NCCCCCCN
Outline: as §1

[12] = compound: CC(C)C[C@@H](C=O)NC(=O)[C@H](CC(C)C)NC(=O)[C@H](CC(C)C)NC(=O)OCc1ccccc1
Outline: as §1

[13] = compound: CC1=C(C(CC(=O)N1)C2=CC=C(C=C2)C(F)(F)F)C(=O)NC3=C(C=C4C(=C3)C=NN4)F
Outline: as §1

[14] = compound: C1=CC(=C(C=C1Cl)C2=NC3=NC=CN=C3C(=N2)NC4=CC=NC=C4)F
Outline: as §1

[15] = compound: CC(C)(O)CC(=O)NCCn1ccc2ncnc(Nc3ccc(Oc4cccc(C(F)(F)F)c4)c(Cl)c3)c21
Outline: as §1

IRAK-1-4 Inhibitor I = compound: C1COCCN1CCN2C3=CC=CC=C3N=C2NC(=O)C4=CC(=CC=C4)[N+](=O)[O-] [IRAK-1-4 Inhibitor I]
Outline: as §1

pinometostat = compound: CC(C)N(C[C@H]1O[C@@H](n2cnc3c(N)ncnc32)[C@H](O)[C@@H]1O)[C@H]1C[C@@H](CCc2nc3cc(C(C)(C)C)ccc3[nH]2)C1 [pinometostat]
Outline: as §1

Measured: log2 fold change

IL23R (UniProt Q5VWK5)
inactive: [1] -0.165 | [2] 0.385 | [3] -0.139 | [4] -0.051 | [5] 0.226 | [6] -0.139 | ibrutinib -0.243 | [7] -0.172 | [8] 0.19

ITGB3BP isoform 5 (UniProt Q13352)
inactive: erlotinib -0.221 | [9] 0.018 | [10] -0.087 | ralimetinib 0.02 | [11] 0.11 | [12] 0.036 | [13] 0.262

INIP (UniProt Q9NRY2)
inactive: [14] 0.269 | [15] 0.178 | [13] 0.081

IGFBP3 isoform 2 (UniProt P17936)
inactive: [1] -0.18 | [14] -0.094 | [2] 0.049 | [4] -0.172 | [5] 0.032 | [6] -0.057 | IRAK-1-4 Inhibitor I 0.115 | [7] 0.097 | [15] 0.196 | pinometostat -0.004 | [8] -0.095

IGFBP6 (UniProt P24592)
inactive: [1] -0.215 | [2] 0.057 | [10] 0.131 | [4] -0.19 | [7] -0.02 | ralimetinib -0.049 | [12] 0.097

ILF3 (UniProt Q12906)
inactive: [14] -0.083 | [3] 0.128 | IRAK-1-4 Inhibitor I -0.058 | ibrutinib 0.036 | [15] 0.191 | pinometostat 0.029

INCENP (UniProt Q9NQS7)
inactive: [10] -0.081 | IRAK-1-4 Inhibitor I -0.447 | ralimetinib 0.171 | [12] 0.02 | pinometostat -0.108

IDS (UniProt P22304)
inactive: [10] -0.187 | ralimetinib -0.158 | [12] 0.039

IDUA (UniProt P35475)
inactive: [14] -0.137 | [15] 0.075

IQGAP3 (UniProt Q86VI3)
inactive: [10] -0.14 | ralimetinib 0.085 | [12] 0.165

IGHA2 (UniProt P01877)
inactive: [13] -0.355

IMP4 (UniProt Q96G21)
inactive: [1] -0.25 | [2] -0.015 | [10] -0.006 | [4] -0.139 | [7] -0.006 | ralimetinib 0.084 | [12] 0.155

IMPA1 (UniProt E5RIP7)
inactive: [3] 0.15 | ibrutinib 0.126

IQSEC2 (UniProt Q5JU85)
inactive: [13] 0.031

IGLC3 (UniProt P0DOY3)
inactive: [13] -0.3

IFNAR1 (UniProt P17181)
inactive: [14] -0.039 | [3] -0.124 | [10] -0.038 | [5] 0.013 | [6] 0.009 | IRAK-1-4 Inhibitor I 0.083 | ibrutinib -0.303 | ralimetinib -0.013 | [15] 0.027 | [12] -0.012 | pinometostat -0.097 | [13] -0.019 | [8] 0.005

IFT20 isoform 2 (UniProt Q8IY31)
inactive: erlotinib 0.024 | [9] 0.027 | [10] 0.029 | ralimetinib -0.057 | [11] -0.056 | [12] -0.247 | [13] 0.172

IPMK (UniProt Q8NFU5)
inactive: [13] -0.403

ING1 (UniProt Q9UK53)
inactive: [1] 0.084 | [2] -0.012 | [3] -0.06 | [4] 0.074 | [5] -0.043 | [6] 0.096 | IRAK-1-4 Inhibitor I 0.462 | ibrutinib 0.025 | [7] 0.053 | pinometostat -0.052 | [8] -0.003

IKZF1 (UniProt R9R4D9)
inactive: [5] -0.055 | [6] -0.13 | IRAK-1-4 Inhibitor I -0.1 | pinometostat -0.103 | [8] 0.385

Two consecutive entries already listed, for reference:
IPMK (UniProt Q8NFU5)
inactive: [13] -0.403

ING1 (UniProt Q9UK53)
inactive: [1] 0.084 | [2] -0.012 | [3] -0.06 | [4] 0.074 | [5] -0.043 | [6] 0.096 | IRAK-1-4 Inhibitor I 0.462 | ibrutinib 0.025 | [7] 0.053 | pinometostat -0.052 | [8] -0.003

Next results:

IL2RG (UniProt P31785)
inactive: [14] 0.014 | [5] -0.051 | [6] 0.14 | [15] -0.076 | [13] -0.156 | [8] -0.068

IGSF1 isoform 4 (UniProt Q8N6C5)
inactive: [1] 0.188 | [2] 0.421 | [4] 0.041 | [7] -0.164

IGF2 isoform 3 (UniProt P01344)
inactive: erlotinib -0.098 | [9] 0.028 | IRAK-1-4 Inhibitor I 0.066 | [11] -0.104 | pinometostat -0.107

ITPR3 (UniProt Q14573)
inactive: IRAK-1-4 Inhibitor I -0.416 | pinometostat 0.383

IGLL5 (UniProt B9A064)
inactive: [3] -0.068 | [5] -0.058 | [6] -0.222 | IRAK-1-4 Inhibitor I -0.106 | ibrutinib 0.175 | pinometostat -0.104 | [13] 0.177 | [8] 0.371

ING5 (UniProt Q8WYH8)
inactive: erlotinib 0.273 | [9] -0.119 | [5] 0.003 | [6] 0.286 | IRAK-1-4 Inhibitor I 0.101 | [11] -0.395 | pinometostat 0.097 | [8] 0.03

INF2 (UniProt Q27J81)
inactive: [1] -0.052 | [14] -0.069 | [2] -0.019 | [3] 0.001 | [10] 0.022 | [4] 0.045 | IRAK-1-4 Inhibitor I 0.12 | ibrutinib -0.007 | [7] -0.077 | ralimetinib 0.044 | [15] -0.003 | [12] 0.072 | pinometostat 0.116 | [13] 0.021

ISL2 (UniProt Q96A47)
inactive: [1] 0.035 | [2] -0.01 | [3] -0.137 | [4] -0.1 | IRAK-1-4 Inhibitor I -0.295 | ibrutinib 0.074 | [7] -0.14 | pinometostat -0.266
